In the supplement of paper PMC10849652 one finds log2 fold change data, which are given here for 35 targets.

By UniProt entry, the sequences of proteins in these tests, tags left out. Where a name states a change or a piece, a line headed by the entry shows the natural chain unless it says otherwise.
UniProt Q6NXT1: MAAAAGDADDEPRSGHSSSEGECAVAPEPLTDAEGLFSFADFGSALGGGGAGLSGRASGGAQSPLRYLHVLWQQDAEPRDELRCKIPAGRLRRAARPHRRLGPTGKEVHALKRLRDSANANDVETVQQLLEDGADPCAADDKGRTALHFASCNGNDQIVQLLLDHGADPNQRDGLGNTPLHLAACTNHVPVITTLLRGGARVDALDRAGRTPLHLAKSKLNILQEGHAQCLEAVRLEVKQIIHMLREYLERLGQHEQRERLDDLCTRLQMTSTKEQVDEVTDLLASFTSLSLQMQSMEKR
UniProt Q02252: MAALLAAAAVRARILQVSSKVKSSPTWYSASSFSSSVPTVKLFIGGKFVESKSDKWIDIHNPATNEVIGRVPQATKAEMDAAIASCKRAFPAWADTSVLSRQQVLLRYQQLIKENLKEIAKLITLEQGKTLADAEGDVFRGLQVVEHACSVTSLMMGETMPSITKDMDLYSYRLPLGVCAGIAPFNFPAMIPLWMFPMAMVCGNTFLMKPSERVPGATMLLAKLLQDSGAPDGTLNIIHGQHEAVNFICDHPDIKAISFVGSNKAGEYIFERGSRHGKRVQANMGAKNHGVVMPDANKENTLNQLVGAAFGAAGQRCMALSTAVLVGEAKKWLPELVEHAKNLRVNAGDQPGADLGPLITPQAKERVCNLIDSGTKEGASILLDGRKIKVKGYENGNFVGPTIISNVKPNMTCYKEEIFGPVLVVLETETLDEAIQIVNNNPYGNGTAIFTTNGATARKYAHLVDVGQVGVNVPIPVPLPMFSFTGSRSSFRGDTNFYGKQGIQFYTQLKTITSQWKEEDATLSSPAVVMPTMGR
UniProt P30837: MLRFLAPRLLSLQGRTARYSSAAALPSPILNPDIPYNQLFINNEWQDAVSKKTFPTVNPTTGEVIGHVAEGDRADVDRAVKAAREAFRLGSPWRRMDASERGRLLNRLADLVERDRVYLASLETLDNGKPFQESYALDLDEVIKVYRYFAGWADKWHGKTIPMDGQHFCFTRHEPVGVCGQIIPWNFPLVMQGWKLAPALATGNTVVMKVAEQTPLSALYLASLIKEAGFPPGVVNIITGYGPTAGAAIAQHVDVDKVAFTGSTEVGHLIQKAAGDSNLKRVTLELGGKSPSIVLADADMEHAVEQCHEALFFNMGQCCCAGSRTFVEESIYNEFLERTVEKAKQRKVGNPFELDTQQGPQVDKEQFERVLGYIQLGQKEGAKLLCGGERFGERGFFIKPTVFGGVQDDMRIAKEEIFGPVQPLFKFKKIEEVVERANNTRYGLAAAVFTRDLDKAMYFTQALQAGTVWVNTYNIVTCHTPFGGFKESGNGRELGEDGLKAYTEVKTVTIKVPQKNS
UniProt Q92572: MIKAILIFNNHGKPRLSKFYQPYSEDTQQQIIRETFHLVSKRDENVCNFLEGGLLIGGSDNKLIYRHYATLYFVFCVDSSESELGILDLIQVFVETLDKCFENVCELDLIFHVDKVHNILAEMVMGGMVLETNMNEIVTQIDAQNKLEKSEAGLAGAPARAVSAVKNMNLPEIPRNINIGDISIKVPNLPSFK
UniProt P58335, whole entry, looked up: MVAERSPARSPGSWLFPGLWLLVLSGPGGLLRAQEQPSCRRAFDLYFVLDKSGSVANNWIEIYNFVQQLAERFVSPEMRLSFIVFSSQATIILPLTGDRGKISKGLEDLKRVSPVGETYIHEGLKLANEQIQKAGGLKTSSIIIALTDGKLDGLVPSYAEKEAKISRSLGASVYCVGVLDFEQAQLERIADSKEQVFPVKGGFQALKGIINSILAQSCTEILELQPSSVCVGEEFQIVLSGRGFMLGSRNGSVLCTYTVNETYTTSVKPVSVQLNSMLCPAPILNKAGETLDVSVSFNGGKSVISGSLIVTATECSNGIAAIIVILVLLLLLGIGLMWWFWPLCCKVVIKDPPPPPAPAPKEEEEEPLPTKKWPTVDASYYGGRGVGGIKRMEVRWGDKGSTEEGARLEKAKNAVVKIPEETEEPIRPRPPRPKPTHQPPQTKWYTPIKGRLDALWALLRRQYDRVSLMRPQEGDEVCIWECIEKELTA
UniProt P53680: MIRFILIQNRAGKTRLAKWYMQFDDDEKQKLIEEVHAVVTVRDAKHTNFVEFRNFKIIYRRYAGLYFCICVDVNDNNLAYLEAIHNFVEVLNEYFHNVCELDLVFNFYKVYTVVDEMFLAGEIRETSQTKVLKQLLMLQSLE
UniProt O14617: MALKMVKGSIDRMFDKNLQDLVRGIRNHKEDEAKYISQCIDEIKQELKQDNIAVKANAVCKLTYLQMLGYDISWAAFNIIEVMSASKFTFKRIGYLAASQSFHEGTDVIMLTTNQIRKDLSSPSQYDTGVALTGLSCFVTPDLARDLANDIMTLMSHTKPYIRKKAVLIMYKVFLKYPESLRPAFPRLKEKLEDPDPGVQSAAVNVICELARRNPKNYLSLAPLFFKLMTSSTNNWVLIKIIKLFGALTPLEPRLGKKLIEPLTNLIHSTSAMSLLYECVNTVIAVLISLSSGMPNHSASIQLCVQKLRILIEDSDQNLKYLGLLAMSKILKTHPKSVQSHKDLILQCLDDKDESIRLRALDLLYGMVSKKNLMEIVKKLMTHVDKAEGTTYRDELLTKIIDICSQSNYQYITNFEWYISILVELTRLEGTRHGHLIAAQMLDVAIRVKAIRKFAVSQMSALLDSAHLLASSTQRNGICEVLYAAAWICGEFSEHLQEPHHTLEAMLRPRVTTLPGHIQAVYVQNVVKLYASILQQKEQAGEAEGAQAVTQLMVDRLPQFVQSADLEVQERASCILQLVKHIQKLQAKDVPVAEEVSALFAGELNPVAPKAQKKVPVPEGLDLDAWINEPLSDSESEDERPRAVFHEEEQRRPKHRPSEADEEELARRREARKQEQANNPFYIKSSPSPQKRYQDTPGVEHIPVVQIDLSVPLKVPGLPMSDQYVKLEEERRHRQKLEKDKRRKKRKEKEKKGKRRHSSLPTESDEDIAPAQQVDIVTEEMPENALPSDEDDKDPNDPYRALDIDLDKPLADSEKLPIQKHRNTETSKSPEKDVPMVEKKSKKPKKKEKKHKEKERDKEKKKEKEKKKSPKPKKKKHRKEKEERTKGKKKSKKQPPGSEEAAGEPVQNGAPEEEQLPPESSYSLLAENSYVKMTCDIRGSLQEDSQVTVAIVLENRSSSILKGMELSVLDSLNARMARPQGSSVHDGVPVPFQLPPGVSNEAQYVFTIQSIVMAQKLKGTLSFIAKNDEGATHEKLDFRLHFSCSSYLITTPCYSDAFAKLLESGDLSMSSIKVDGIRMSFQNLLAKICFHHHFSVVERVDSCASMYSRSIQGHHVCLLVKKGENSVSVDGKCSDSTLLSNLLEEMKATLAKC
UniProt Q3SY69: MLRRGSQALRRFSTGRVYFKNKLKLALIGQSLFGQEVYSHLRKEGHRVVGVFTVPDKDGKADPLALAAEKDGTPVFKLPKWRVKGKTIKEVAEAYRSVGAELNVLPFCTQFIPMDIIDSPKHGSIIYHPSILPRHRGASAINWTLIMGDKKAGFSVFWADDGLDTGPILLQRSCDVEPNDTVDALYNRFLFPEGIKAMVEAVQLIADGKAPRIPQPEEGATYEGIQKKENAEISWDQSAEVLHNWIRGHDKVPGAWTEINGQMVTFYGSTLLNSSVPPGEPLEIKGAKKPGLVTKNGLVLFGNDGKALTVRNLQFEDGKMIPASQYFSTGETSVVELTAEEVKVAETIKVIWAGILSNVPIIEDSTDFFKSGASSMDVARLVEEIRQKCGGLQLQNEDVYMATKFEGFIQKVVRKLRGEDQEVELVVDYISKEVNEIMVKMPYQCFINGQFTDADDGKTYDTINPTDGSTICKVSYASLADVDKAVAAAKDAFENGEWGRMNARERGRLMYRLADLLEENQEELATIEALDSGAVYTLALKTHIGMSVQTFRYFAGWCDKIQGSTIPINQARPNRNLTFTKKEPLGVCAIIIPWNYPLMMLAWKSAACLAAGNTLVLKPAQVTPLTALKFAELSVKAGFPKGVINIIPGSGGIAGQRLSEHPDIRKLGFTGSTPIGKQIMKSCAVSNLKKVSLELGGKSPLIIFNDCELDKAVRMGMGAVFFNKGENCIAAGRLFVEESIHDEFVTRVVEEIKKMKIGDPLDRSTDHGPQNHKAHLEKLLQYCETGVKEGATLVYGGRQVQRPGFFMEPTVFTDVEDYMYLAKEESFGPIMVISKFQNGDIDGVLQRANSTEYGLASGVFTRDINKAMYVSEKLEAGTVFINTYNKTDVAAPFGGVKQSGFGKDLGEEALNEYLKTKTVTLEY
UniProt P13716: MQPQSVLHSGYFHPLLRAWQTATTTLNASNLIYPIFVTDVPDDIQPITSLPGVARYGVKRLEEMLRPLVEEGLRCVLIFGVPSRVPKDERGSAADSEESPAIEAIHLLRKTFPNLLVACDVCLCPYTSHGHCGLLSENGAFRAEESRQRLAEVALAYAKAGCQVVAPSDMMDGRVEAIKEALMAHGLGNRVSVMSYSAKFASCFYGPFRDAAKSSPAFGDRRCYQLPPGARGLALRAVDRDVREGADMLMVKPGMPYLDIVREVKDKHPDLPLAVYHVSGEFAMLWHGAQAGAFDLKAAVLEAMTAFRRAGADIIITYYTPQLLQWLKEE
UniProt Q13367: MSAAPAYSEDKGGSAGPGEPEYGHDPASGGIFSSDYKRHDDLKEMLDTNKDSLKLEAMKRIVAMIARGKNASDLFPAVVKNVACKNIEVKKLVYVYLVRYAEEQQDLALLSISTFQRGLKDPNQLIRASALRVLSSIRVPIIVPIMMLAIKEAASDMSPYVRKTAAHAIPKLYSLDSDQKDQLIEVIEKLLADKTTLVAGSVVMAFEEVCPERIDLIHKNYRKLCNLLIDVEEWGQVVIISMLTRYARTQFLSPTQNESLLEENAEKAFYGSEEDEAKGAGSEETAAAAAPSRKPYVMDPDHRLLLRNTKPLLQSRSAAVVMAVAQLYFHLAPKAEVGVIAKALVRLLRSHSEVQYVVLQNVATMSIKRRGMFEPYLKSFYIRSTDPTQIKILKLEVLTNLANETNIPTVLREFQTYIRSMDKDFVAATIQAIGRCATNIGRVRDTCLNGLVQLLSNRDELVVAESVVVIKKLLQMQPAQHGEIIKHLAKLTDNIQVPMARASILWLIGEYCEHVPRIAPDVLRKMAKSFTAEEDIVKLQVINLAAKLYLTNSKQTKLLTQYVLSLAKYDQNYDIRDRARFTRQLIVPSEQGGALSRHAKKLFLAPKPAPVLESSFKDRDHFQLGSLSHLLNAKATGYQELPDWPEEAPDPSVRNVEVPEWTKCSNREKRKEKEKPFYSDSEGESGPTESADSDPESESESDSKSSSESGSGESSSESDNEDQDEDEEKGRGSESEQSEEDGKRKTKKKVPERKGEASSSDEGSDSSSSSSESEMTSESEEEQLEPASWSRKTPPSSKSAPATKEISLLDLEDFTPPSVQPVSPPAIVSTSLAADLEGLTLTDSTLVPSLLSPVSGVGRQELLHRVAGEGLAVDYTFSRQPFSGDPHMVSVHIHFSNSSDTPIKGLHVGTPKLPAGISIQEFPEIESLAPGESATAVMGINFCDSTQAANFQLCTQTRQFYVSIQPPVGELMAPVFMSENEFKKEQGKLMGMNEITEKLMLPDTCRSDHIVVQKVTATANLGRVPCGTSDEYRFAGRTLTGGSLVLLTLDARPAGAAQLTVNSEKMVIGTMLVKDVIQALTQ
UniProt Q9UM13, whole entry, looked up: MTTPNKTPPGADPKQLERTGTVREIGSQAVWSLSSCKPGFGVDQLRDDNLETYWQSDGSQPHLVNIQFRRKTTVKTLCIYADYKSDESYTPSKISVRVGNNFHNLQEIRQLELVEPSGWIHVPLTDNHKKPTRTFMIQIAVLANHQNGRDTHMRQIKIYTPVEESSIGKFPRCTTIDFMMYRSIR
UniProt Q9BT22: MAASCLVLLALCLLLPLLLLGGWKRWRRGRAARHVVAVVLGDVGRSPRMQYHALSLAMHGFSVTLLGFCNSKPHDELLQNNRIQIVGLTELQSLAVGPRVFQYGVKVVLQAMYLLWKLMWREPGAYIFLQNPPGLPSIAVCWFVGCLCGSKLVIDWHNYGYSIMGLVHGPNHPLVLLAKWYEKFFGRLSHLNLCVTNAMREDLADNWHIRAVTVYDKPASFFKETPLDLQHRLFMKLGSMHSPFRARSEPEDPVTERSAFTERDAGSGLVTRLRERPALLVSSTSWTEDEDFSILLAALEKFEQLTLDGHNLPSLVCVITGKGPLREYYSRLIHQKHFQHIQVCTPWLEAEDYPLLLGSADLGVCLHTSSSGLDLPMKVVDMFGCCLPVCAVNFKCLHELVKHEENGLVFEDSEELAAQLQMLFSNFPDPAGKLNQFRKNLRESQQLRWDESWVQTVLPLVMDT

The other results are listed elsewhere or left out.

Compound in one assay: CCCS(=O)(=O)Nc1ccc(F)c(C(=O)c2c[nH]c3ncc(-c4ccc(Cl)cc4)cc23)c1F [vemurafenib]
The experiment in a line: log2 fold change, soluble protein after heating vs DMSO (PISA); higher = thermal stabilisation; K562 lysate, 10 uM; active = over 0.2 and 3.5 SD of the protein, either way, in both replicates (recomputed). The procedure, abridged:
(§1)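 Log-two fold change in thermal stability relative to solvent controls is reported from duplicates. For each sample, crude K562 extract from dounce-homogenised pellets in PBS pH 7.4 with 1 mM MgCl2, at 1 mg/mL protein, was treated with 10 μM compound for 30 min. Aliquots heated for 3 min across 48°C-58°C were pooled, brought to 0.5% NP-40 at 4°C and cleared at 21,000xg for 90 min. The supernatant was quantified by TMTpro 16plex LC-MS/MS with channel sums equalised.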
As for ANKRD54 (UniProt Q6NXT1), the log2 fold change was inactive: -0.031.

For ALDH6A1 (UniProt Q02252), the log2 fold change was inactive: 0.055.

On to ALKBH3 (UniProt Q96Q83), for which the log2 fold change is inactive: 0.004.

On to AMD1 (UniProt P17707), for which the log2 fold change is inactive: 0.096.

For the target ANPEP (UniProt P15144), the log2 fold change is inactive: 0.179.

Take ANXA11 (UniProt P50995): the log2 fold change was inactive: 0.02.

In the case of ALDH1A1 (UniProt P00352), the log2 fold change was inactive: -0.027.

Regarding ALDH1B1 (UniProt P30837), the log2 fold change is inactive: 0.008.

In the case of ANK1 isoform 14 (UniProt P16157), the log2 fold change is inactive: 0.03.

Take AP3S1 (UniProt Q92572): the log2 fold change was inactive: 0.047.

On to ANKRD28 (UniProt O15084), for which the log2 fold change is inactive: -0.007.

As for ALS2 (UniProt Q96Q42), the log2 fold change is inactive: 0.031.

As to ANTXR2 isoform 4 (UniProt P58335), the log2 fold change is inactive: 0.03.

Consider ANAPC4 isoform 3 (UniProt Q9UJX5), for which the log2 fold change is inactive: 0.035.

For ALMS1 (UniProt Q8TCU4), the log2 fold change was inactive: 0.064.

Consider AKT1S1 isoform 3 (UniProt Q96B36), for which the log2 fold change is inactive: 0.

On to ALDH18A1 (UniProt P54886), for which the log2 fold change was inactive: 0.052.

As to AP2S1 (UniProt P53680), the log2 fold change is inactive: -0.07.

As to AP3D1 isoform 5 (UniProt O14617), the log2 fold change was inactive: -0.001.

AP1B1 (UniProt Q10567): the log2 fold change is inactive: -0.032.

Turning to ALG2 (UniProt Q9H553), the log2 fold change was inactive: 0.067.

Turning to ALDH2 (UniProt P05091), the log2 fold change was inactive: -0.083.

On to ANP32B (UniProt Q92688), for which the log2 fold change was inactive: 0.003.

Consider AP1G2 (UniProt O75843), for which the log2 fold change was inactive: -0.057.

On to ANGEL2 (UniProt Q5VTE6), for which the log2 fold change was inactive: 0.006.

As to ANKRD13A (UniProt Q8IZ07), the log2 fold change is inactive: -0.009.

Turning to ALDH1L2 (UniProt Q3SY69), the log2 fold change is inactive: -0.084.

As for ALAD (UniProt P13716), the log2 fold change was inactive: 0.034.

In the case of AP3B2 isoform 4 (UniProt Q13367), the log2 fold change is inactive: -0.019.

As to ANAPC2 (UniProt Q9UJX6), the log2 fold change was inactive: 0.05.

In the case of ALDH1A2 (UniProt O94788), the log2 fold change is inactive: -0.033.

With ANXA3 (UniProt P12429), the log2 fold change was inactive: -0.023.

ANKRD27 (UniProt Q96NW4): the log2 fold change is inactive: -0.016.

Turning to ANAPC10 (UniProt Q9UM13), the log2 fold change was inactive: 0.022.

As to ALG1 (UniProt Q9BT22), the log2 fold change was inactive: -0.035.

Compound in another assay: CCCS(=O)(=O)Nc1ccc(F)c(C(=O)c2c[nH]c3ncc(Cl)cc23)c1F
The description is as above. Summed up: as §1
ANKRD54 (UniProt Q6NXT1): the log2 fold change was inactive: 0.053.

For the target ALDH6A1 (UniProt Q02252), the log2 fold change was inactive: 0.027.

With ALKBH3 (UniProt Q96Q83), the log2 fold change is inactive: 0.079.

As to AMD1 (UniProt P17707), the log2 fold change is inactive: -0.01.

For the target ANPEP (UniProt P15144), the log2 fold change was inactive: 0.023.

In the case of ANXA11 (UniProt P50995), the log2 fold change was inactive: -0.013.

With ALDH1A1 (UniProt P00352), the log2 fold change was inactive: 0.001.

As for ALDH1B1 (UniProt P30837), the log2 fold change is inactive: 0.017.

Consider ANK1 isoform 14 (UniProt P16157), for which the log2 fold change is inactive: 0.011.

Take AP3S1 (UniProt Q92572): the log2 fold change was inactive: -0.004.

Consider ANKRD28 (UniProt O15084), for which the log2 fold change was inactive: 0.008.

Consider ALS2 (UniProt Q96Q42), for which the log2 fold change is inactive: 0.069.

Turning to ANTXR2 isoform 4 (UniProt P58335), the log2 fold change was inactive: -0.001.

As to ANAPC4 isoform 3 (UniProt Q9UJX5), the log2 fold change is inactive: 0.027.

In the case of ALMS1 (UniProt Q8TCU4), the log2 fold change is inactive: 0.025.

Take AKT1S1 isoform 3 (UniProt Q96B36): the log2 fold change is inactive: -0.014.

Consider ALDH18A1 (UniProt P54886), for which the log2 fold change was inactive: -0.006.

Consider AP2S1 (UniProt P53680), for which the log2 fold change was inactive: -0.023.

In the case of AP3D1 isoform 5 (UniProt O14617), the log2 fold change was inactive: -0.002.

Regarding AP1B1 (UniProt Q10567), the log2 fold change was inactive: 0.023.

In the case of ALG2 (UniProt Q9H553), the log2 fold change is inactive: 0.007.

As for ALDH2 (UniProt P05091), the log2 fold change is inactive: 0.011.

For the target ANP32B (UniProt Q92688), the log2 fold change is inactive: 0.043.

Take AP1G2 (UniProt O75843): the log2 fold change was inactive: 0.044.

For the target ANGEL2 (UniProt Q5VTE6), the log2 fold change was inactive: 0.036.

Consider ANKRD13A (UniProt Q8IZ07), for which the log2 fold change is inactive: 0.062.

ALDH1L2 (UniProt Q3SY69): the log2 fold change was inactive: -0.026.

Take ALAD (UniProt P13716): the log2 fold change was inactive: 0.011.

Regarding AP3B2 isoform 4 (UniProt Q13367), the log2 fold change was inactive: 0.017.

With ANAPC2 (UniProt Q9UJX6), the log2 fold change is inactive: 0.026.

Turning to ALDH1A2 (UniProt O94788), the log2 fold change was inactive: -0.001.

As to ANXA3 (UniProt P12429), the log2 fold change was inactive: 0.009.

As to ANKRD27 (UniProt Q96NW4), the log2 fold change is inactive: 0.006.

Take ANAPC10 (UniProt Q9UM13): the log2 fold change was inactive: 0.011.

Turning to ALG1 (UniProt Q9BT22), the log2 fold change was inactive: -0.01.
